PubChem BioAssay AID1347423 (Functional Genomics Laboratory (NCATS/FGL), 2020)
Hit rate of the full screen: of about 52,000 sequences, about 210 (0.4%) were called active.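 How the source made its calls: active means gene whose silencing raises cell survival under the drug, median off-target-corrected z-score across its silencing RNAs 2 or more; inactive means the rest.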 This is one part of the list.

test: Resistance to Poly (ADP-Ribose) Polymerase inhibitor: Gene Identification via Genome-wide siRNA Screen; conditions: mouse BRCA2 R2336H ES cells, olaparib, CellTiter-Glo viability; hits give high values
Outline: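 Genome-wide siRNA screen (3 siRNAs/gene, 20 nM) in mouse ES cells carrying hypomorphic BRCA2 R2336H; olaparib 500 nM added 48 h post-transfection, CellTiter-Glo viability 72 h later. Normalized to plate-median negative control; MAD z-scores, gene median, seed-adjusted.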

| Sequence | z-score |
| --- | --- |
| GGAAAUAAUGCUUAUGGAUTT against Abcb1b | inactive: -0.157 |
| GGAGGGCAUGUACUAUGAGTT against 2310051M13Rik | inactive: -0.142 |
| GGAAUGAUGAAGAGUGUCCTT against Btla | inactive: 0.0429 |
| GCACCUUCCUAAUCACAGCTT against Gpr100 | inactive: -0.292 |
| GGACCUGUUGUCAGACUGCTT against Kif20a | inactive: -0.621 |
| GCACCUCUAUUAUAAUAAGTT against Vps13c | inactive: 0.112 |
| GGGUACCAUAUCCUCACCUTT against Ltbp3 | inactive: -0.945 |
| CGCAUGCCUGUAAAAUAAATT against 2310057M21Rik | inactive: -0.688 |
| GGAAGCUGGUUCCUGUUUUTT against Bid3 | active: 2.66 |
| CCUUGACUGGAAUAUAUAATT against Dlc1 | inactive: -1.22 |
| UCUGCCACCCUCUCCAAUATT against Olfr1116 | inactive: -0.681 |
| GCCAGUUUCCAGUCCUUGUTT against Dppa5 | inactive: -2 |
| CGAGGAUUAAGAGGACUUCTT against Col9a3 | inactive: 0.166 |
| CCAGAUUCUAUAAUAGAGUTT against Gabrp | inactive: -0.526 |
| CCUGGCAGACGUGGAACAATT against Ppp1r13l | inactive: -0.0391 |
| CCUCUUCAACAAACAAGCATT against Hkr2 | inactive: 2.23 |
| GGCCCAGUUGUUAAACUCUTT against C530028O21Rik | inactive: -1.06 |
| GGCAAAGAGAUUGACAUUGTT against Kif2c | inactive: -1.67 |
| GGUGAUAGAGCACAAGGCUTT against G930045G22Rik | inactive: -0.906 |
| GGCACUCCAUCAAAGGCUUTT against Cd209a | inactive: -0.259 |
| GGCUGGAUGUCCUAUAGUCTT against Adam24 | inactive: -0.609 |
| GGUGGACUCACAUUAUUGUTT against Dctn4 | inactive: 0.723 |
| GGUCCAUGAACCUCAGUGUTT against F830045P16Rik | inactive: -2.06 |
| GCUAAUAAUGGUCAAAGCCTT against B230206N24Rik | inactive: -0.274 |
| GCAGUCAAUUCCCUUUUACTT against Ankmy1 | inactive: 2.02 |
| GCUCACUCUUUCCAACUAUTT against C330018L13Rik | inactive: -1.18 |

2 records picked at random from those above, as already listed:

| Sequence | z-score |
| --- | --- |
| UCUGCCACCCUCUCCAAUATT against Olfr1116 | inactive: -0.681 |
| CCAGAUUCUAUAAUAGAGUTT against Gabrp | inactive: -0.526 |

(further entries)

| Sequence | z-score |
| --- | --- |
| GGUCGGCCAAUUACAAUGUTT against Eml4 | inactive: -0.154 |
| CCUGUUCUGCCCUAAAUUUTT against Olfr1155 | inactive: -0.834 |
| GCAGGAUGCAGCGAUAGUUTT against Slc2a6 | inactive: -0.832 |
| GGACAUAAAACUUUUCAGUTT against Foxf2 | inactive: 0.918 |
| GGAAUUAAGUCAUCAGGAATT against Slc6a5 | inactive: -0.265 |
| GGACUUCUAAAAAUCUCUGTT against C030002O17Rik | inactive: -1.54 |
| CGGAACAUGGAGUUUAAGCTT against 4933406A14Rik | inactive: 0.194 |
| GGAAAAAAAAGUCUUCCUATT against 4932418K24Rik | inactive: 0.697 |
| GCAGUUUCGUUCCUACUCGTT against D11Ertd497e | inactive: -0.118 |
| GGUGAUCUAGAAACAACCCTT against 1700095F04Rik | inactive: 0.875 |
| CAAAGGAUGGCUGGUCAGATT against Sctr | inactive: -0.459 |
| CCUACUGAUGUACACUGGATT against Fgf20 | inactive: -0.728 |
| GGUGGGCUACGAACUAAAGTT against 1500019O16Rik | inactive: -0.112 |
| GGUUGUGCCAGAGGAGAUUTT against Scrib | inactive: -0.364 |
| GCGAUCUAGAAAUUGACAATT against St13 | inactive: -0.16 |
| CCAAUCUUAGUCAUCCAUUTT against Foxo6 | inactive: 0.0585 |
| CCACGUUUACACCAACGUGTT against BC044804 | inactive: 0.928 |
| GCAACAGCUUUAGAGUGACTT against B3gnt4 | inactive: 0.812 |
| CGAUAAAAAUGAAUGGGACTT against Cyp17a1 | inactive: 0.26 |
| UAAUGGCUGCUGUCUCCUGTT against Olfr441 | inactive: -1.3 |
| GGGCAACUACCUCUUUCGATT against Lrrc20 | inactive: 0.497 |
| GCGGGAGCUUAGCUUUUAUTT against G6pc3 | inactive: 0.973 |
| GGAUCUCAGUGAAGGAGGUTT against Egfl9 | inactive: -0.589 |
| CGUCUACCCGGAAUUUCAGTT against Sdha | inactive: -1.84 |
| CGUGGUUCAGUUUCAUCAATT against Cox7a2 | inactive: -0.171 |
| GCAACUUGGAAUGUUAUCUTT against Adh4 | inactive: 0.0952 |

Taken from above.
z-score with CCUACUGAUGUACACUGGATT against Fgf20 is entered as inactive: -0.728
z-score with GCAGGAUGCAGCGAUAGUUTT against Slc2a6 is entered as inactive: -0.832
z-score with CCUGGCAGACGUGGAACAATT against Ppp1r13l is entered as inactive: -0.0391

Next part

| Sequence | z-score |
| --- | --- |
| GGUUUGUUUUCAGAUGAAGTT against D6Wsu116e | inactive: 0.397 |
| GGACAUGCAAAGAUACCGGTT against Ogfr | inactive: -0.804 |
| GGUUCUGAUUUCAUUUGAUTT against Pkia | inactive: -0.7 |
| CCUGGUGGAUUGUUGGUGUTT against Guca1b | inactive: -0.293 |
| GGCCUUGAAUGAGCAUCAUTT against Hrb2 | inactive: -1.57 |
| GCUUAACCGUUUUUUCAAATT against Tgif | inactive: 0.555 |
| GCAUCACUGGAAAUCUUACTT against Olfr807 | inactive: 0.0483 |
| CCAACAGUAGAUAAAAAGCTT against Sesn1 | inactive: 0.289 |
| GCAUUCAUUUGAGCUCGGUTT against 2310044H10Rik | inactive: 0.245 |
| GGCUUUACAUUUUCAUUGUTT against Olfr993 | inactive: -0.337 |
| GCAAGAAAUGGACAAUUACTT against Gkap1 | inactive: -0.653 |
| GUUAGAUGCCCUCAAGUUCTT against 1810073E21Rik | inactive: 0.297 |
| GCCUCAUUGAAAGGAUCCATT against GnT-IX | inactive: -0.888 |
| GGAUGUACAAUAAUUGGGATT against A430089I19Rik | inactive: 0.461 |
| GCUUUACCUCCUAUUAAUATT against Rgs9bp | inactive: 0.402 |
| GGUAUGUAACGGUAUUUAATT against Gja1 | inactive: 1.59 |
| GGCUGUUUGUGGUAUAGGUTT against Lrrc3 | inactive: 1.52 |
| GGGAAUCGGCCUGAAGAAATT against Arl6ip5 | inactive: -0.707 |
| GCUUCAAUAACUGCGCAAGTT against 9430065N20Rik | inactive: -0.203 |
| GGAUACCAUAGCAGAUCCATT against B430104H02Rik | inactive: 0.812 |
| GGAUUCCAAGCUUUCGAAATT against Golph4 | inactive: 0.328 |
| GGUUCUCCAAGGAAAGAGGTT against 2310002L09Rik | inactive: -0.864 |
| GCAGUUCCCAUAGUUUUCUTT against Il1r2 | inactive: 2.37 |
| GGUGCUUUAAAGAAAAUGCTT against 5730528L13Rik | inactive: 0.328 |
| CCCAAAUCGUAGCUGAUGATT against Cadps | inactive: 1.29 |
| GGUACUGGAUCAAAGAAACTT against RP23-219P13.3 | inactive: 0.000352 |

| Sequence | z-score |
| --- | --- |
| GCUACAAUGUAGGUCUCAGTT against Rsbn | inactive: -0.36 |
| GGGCUAUGUUCGAAGUAAATT against Kbtbd3 | inactive: -0.485 |
| GCGGAUUCACUUCUACUACTT against Asah3 | inactive: -0.526 |
| GGUGGACUCUGUUUAAAAATT against Mtnr1a | inactive: -0.382 |
| GGUUCAGUUUUGGCUGGCUTT against Olfr558 | inactive: -0.333 |
| GGAUACAUUAAGGUGCAAGTT against Aldh1a7 | inactive: 1.71 |
| GGACACCAAAAGCUAAGUGTT against 1810031K17Rik | inactive: -0.829 |
| GGUGGCUCUGGUUAAACUCTT against BC060631 | inactive: -0.227 |
| GGUUCUUUCGAGAAUGGACTT against Card4 | inactive: 1.97 |
| GGACAGAUUGUGGAAACCUTT against Catns | inactive: -1.54 |
| CCCAGAUACGCUAUUCGGUTT against Pcdhga12 | inactive: 0.339 |
| GGAAAUGAGACGAAGGAGGTT against Kpna6 | inactive: -0.323 |
| GGAGAGUUUGUCAUUAGUUTT against 5031400M07Rik | inactive: -0.807 |
| GGAAGAUCCUUGGAAAAUUTT against 2810439K08Rik | inactive: 0.154 |
| GCCCUAAUUAGCUUUUUGUTT against Gpr68 | inactive: 0.425 |
| GUAAUCACCUUAAAGAUGUTT against Cebpb | inactive: 0.504 |
| GGGCAAGAAACCUCUUAACTT against Synpo2 | inactive: -0.679 |
| GGGUCAUCCAAUAUUUUGCTT against Myh7 | inactive: 0.473 |
| GGAGAAAAAUAUUCUCUACTT against Olfr1094 | inactive: 0.822 |
| CCGGCUAUCUUUGAGAUGGTT against Kif3c | inactive: -0.48 |
| CCAUUAGGAUCCCUUAGGGTT against AY534253 | inactive: 1.2 |
| GGACUUCAAGUGGCUGAAGTT against Siat6 | inactive: 1.69 |
| GGUUGUUGGAAAAAUAGAUTT against 3010001K23Rik | inactive: -1.91 |
| GGCAACAUUGAACAUGCCUTT against Stambp | inactive: -0.472 |
| GCAAUAGUAUGGUAAGUUATT against F730015K02Rik | inactive: -0.985 |
